Assay results as given in patent US9303040B2, “Substituted piperazines as AKT inhibitors” (ARRAY BIOPHARMA INC., priority 2006, dated 2016).
Where a name gives a salt, the structure may show the parent alone. Some entries share one result that the patent states for a list of compounds.

Sequences of proteins named here, by UniProt entry; tags and fusion partners are left off. A change or cut given only in a name is not applied to a line headed by its entry.
UniProt P31749: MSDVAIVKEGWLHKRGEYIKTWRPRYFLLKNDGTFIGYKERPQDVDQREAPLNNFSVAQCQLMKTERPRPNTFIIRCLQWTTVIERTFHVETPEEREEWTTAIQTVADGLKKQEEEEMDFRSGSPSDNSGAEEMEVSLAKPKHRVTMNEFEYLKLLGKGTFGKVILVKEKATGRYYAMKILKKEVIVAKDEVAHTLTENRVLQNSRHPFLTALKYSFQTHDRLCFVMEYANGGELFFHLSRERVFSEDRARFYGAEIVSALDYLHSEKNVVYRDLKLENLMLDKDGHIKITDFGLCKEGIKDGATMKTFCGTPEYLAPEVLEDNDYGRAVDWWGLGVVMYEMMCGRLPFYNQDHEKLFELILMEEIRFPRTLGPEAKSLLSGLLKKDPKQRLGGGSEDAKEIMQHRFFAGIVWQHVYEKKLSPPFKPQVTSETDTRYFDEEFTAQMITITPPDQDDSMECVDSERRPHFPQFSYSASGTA

Each molecule was assayed against T1, full-length human recombinant active AKT-1 (Homo sapiens, UniProt P31749) (assay: AKT-1 Kinase Assay (IMAP fluorescence polarization, phosphorylation of fluorescently-labeled peptide)).
T1 construct: The AKT-1 used is made from full-length, human recombinant AKT-1
Format: biochemical

IC50, < 10 µM:
C[C@@H]1SCc2ncnc(N3CCN(C(=O)[C@H](N)Cc4ccc(F)cc4)CC3)c21 [Example 28, (R)-2-amino-3-(4-fluorophenyl)-1-(4-((S)-5-methyl-5,7-dihydrothieno[3,4-d]pyrimidin-4-yl)piperazin-1-yl)propan-1-one]
CC1SCc2ncnc(N3CCN(C(=O)C(CC(C)(C)N)c4ccc(Cl)cc4)CC3)c21 (centres unmarked) [Example 21, 4-amino-2-(4-chlorophenyl)-4-methyl-1-(4-(5-methyl-5,7-dihydrothieno[3,4-d]pyrimidin-4-yl)piperazin-1-yl)pentan-1-one]
C[C@@H]1SCc2ncnc(N3CCN(C(=O)[C@H](N)Cc4ccc(F)cc4)C[C@@H]3C)c21 [Example 7, (R)-2-amino-3-(4-fluorophenyl)-1-((S)-3-methyl-4-((S)-5-methyl-5,7-dihydrothieno[3,4-d]pyrimidin-4-yl)piperazin-1-yl)propan-1-one dihydrochloride]
C[C@H]1SCc2ncnc(N3CCN(C(=O)C(CN4CCCC4)c4ccc(Cl)cc4)C[C@@H]3C)c21 (stereo partly drawn) [Example 54, 2-(4-chlorophenyl)-1-((S)-3-methyl-4-((R)-5-methyl-5,7-dihydrothieno[3,4-d]pyrimidin-4-yl)piperazin-1-yl)-3-(pyrrolidin-1-yl)propan-1-one]
CC(C)NCC(C(=O)N1CCN(c2ncnc3c2[C@H](C)SC3)CC1)c1ccc(Cl)c(F)c1 (stereo partly drawn) [Example 65, 2-(4-chloro-3-fluorophenyl)-3-(isopropylamino)-1-(4-((S)-5-methyl-5,7-dihydrothieno[3,4-d]pyrimidin-4-yl)piperazin-1-yl)propan-1-one]
CC1SCc2ncnc(N3CCN(C(=O)C(CC4(N)CC4)c4ccc(Cl)cc4)CC3)c21 (centres unmarked) [Example 20, 3-(1-aminocyclopropyl)-2-(4-chlorophenyl)-1-(4-(5-methyl-5,7-dihydrothieno[3,4-d]pyrimidin-4-yl)piperazin-1-yl)propan-1-one]
CCC1SCc2ncnc(N3CCN(C(=O)[C@H](N)Cc4ccc(Cl)c(F)c4)CC3)c21 (stereo partly drawn) [Example 10, (2R)-2-amino-3-(4-chloro-3-fluorophenyl)-1-(4-(5-ethyl-5,7-dihydrothieno[3,4-d]pyrimidin-4-yl)piperazin-1-yl)propan-1-one dihydrochloride]
C[C@@H]1SCc2ncnc(N3CCN(C(=O)[C@H](N)Cc4ccc(Cl)cc4)C[C@@H]3C)c21 [Example 5, (R)-2-amino-3-(4-chlorophenyl)-1-((S)-3-methyl-4-((S)-5-methyl-5,7-dihydrothieno[3,4-d]pyrimidin-4-yl)piperazin-1-yl)propan-1-one dihydrochloride]
C[C@@H]1SCc2ncnc(N3CCN(C(=O)C(CC(C)(C)N)c4ccc(Cl)cc4)C[C@@H]3C)c21 (stereo partly drawn) [Example 56, 4-amino-2-(4-chlorophenyl)-4-methyl-1-((S)-3-methyl-4-((S)-5-methyl-5,7-dihydrothieno[3,4-d]pyrimidin-4-yl)piperazin-1-yl)pentan-1-one]
C[C@H]1SCc2ncnc(N3CCN(C(=O)[C@H](N)Cc4ccc(Cl)cc4)C[C@@H]3C)c21 [Example 52, (R)-2-amino-3-(4-chlorophenyl)-1-((S)-3-methyl-4-((R)-5-methyl-5,7-dihydrothieno[3,4-d]pyrimidin-4-yl)piperazin-1-yl)propan-1-one]
C[C@H]1SCc2ncnc(N3CCN(C(=O)C(CC(C)(C)N)c4ccc(Cl)cc4)C[C@@H]3C)c21 (stereo partly drawn) [Example 60, 4-amino-2-(4-chlorophenyl)-4-methyl-1-((S)-3-methyl-4-((R)-5-methyl-5,7-dihydrothieno[3,4-d]pyrimidin-4-yl)piperazin-1-yl)pentan-1-one]
C[C@H]1SCc2ncnc(N3CCN(C(=O)C(CC(C)(C)N)c4ccc(F)cc4)CC3)c21 (stereo partly drawn) [Example 45, 4-amino-2-(4-fluorophenyl)-4-methyl-1-(4-((R)-5-methyl-5,7-dihydrothieno[3,4-d]pyrimidin-4-yl)piperazin-1-yl)pentan-1-one]
C[C@@H]1SCc2ncnc(N3CCN(C(=O)C(c4ccc(Cl)cc4)C4(N)CC4)CC3)c21 (some centres unmarked) [Example 30]
C[C@@H]1SCc2ncnc(N3CCN(C(=O)C(CC(C)(C)N)c4ccc(F)cc4)CC3)c21 (stereo partly drawn) [Example 33, 4-amino-2-(4-fluorophenyl)-4-methyl-1-(4-((S)-5-methyl-5,7-dihydrothieno[3,4-d]pyrimidin-4-yl)piperazin-1-yl)pentan-1-one]
CC(C)NCC(C(=O)N1CCN(c2ncnc3c2[C@@H](C)SC3)CC1)c1ccc(Cl)cc1 (stereo partly drawn) [Example 39, 2-(4-chlorophenyl)-3-(isopropylamino)-1-(4-((R)-5-methyl-5,7-dihydrothieno[3,4-d]pyrimidin-4-yl)piperazin-1-yl)propan-1-one]
CC1SCc2ncnc(N3CCN(C(=O)C4(c5cccc(Cl)c5)CCNCC4)CC3)c21 (centres unmarked) [Example 26, (4-(3-chlorophenyl)piperidin-4-yl)(4-(5-methyl-5,7-dihydrothieno[3,4-d]pyrimidin-4-yl)piperazin-1-yl)methanone]
C[C@@H]1SCc2ncnc(N3CCN(C(=O)C4(c5ccc(Cl)cc5)CCNCC4)CC3)c21 [Example 50, (S)-(4-(4-chlorophenyl)piperidin-4-yl)(4-(5-methyl-5,7-dihydrothieno[3,4-d]pyrimidin-4-yl)piperazin-1-yl)methanone]
CC1SCc2ncnc(N3CCN(C(=O)C4(c5ccc(Cl)cc5)CCN(C)CC4)CC3)c21 (centres unmarked) [Example 48, (4-(4-chlorophenyl)-1-methylpiperidin-4-yl)(4-(5-methyl-5,7-dihydrothieno[3,4-d]pyrimidin-4-yl)piperazin-1-yl)methanone]
C[C@@H]1SCc2ncnc(N3CCN(C(=O)[C@H](N)Cc4ccc(F)c(F)c4)C[C@@H]3C)c21 [Example 8, (R)-2-amino-3-(3,4-difluorophenyl)-1-(S)-3-methyl-4-((S)-5-methyl-5,7-dihydrothieno[3,4-d]pyrimidin-4-yl)piperazin-1-yl)propan-1-one dihydrochloride]
CC(C)NCC(C(=O)N1CCN(c2ncnc3c2[C@H](C)SC3)CC1)c1ccc(F)cc1 (mixture of isomers) [Example 13, 2-(4-fluorophenyl)-3-(isopropylamino)-1-(4-((S)-5-methyl-5,7-dihydrothieno[3,4-d]pyrimidin-4-yl)piperazin-1-yl)propan-1-one dihydrochloride]
C[C@H]1SCc2ncnc(N3CCN(C(=O)C(CN4CCCC4)c4ccc(Cl)cc4)CC3)c21 (stereo partly drawn) [Example 40, 2-(4-chlorophenyl)-1-(4-((R)-5-methyl-5,7-dihydrothieno[3,4-d]pyrimidin-4-yl)piperazin-1-yl)-3-(pyrrolidin-1-yl)propan-1-one]
CCC1c2c(ncnc2N2CCN(C(=O)[C@H](N)Cc3ccc(Cl)cc3)CC2)CS1(=O)=O (stereo partly drawn) [Example 71, (2R)-2-amino-3-(4-chlorophenyl)-1-(4-(5-ethyl-6,6-dioxido-5,7-dihydrothieno[3,4-d]pyrimidin-4-yl)piperazin-1-yl)propan-1-one]
CC1SCc2ncnc(N3CCN(C(=O)[C@H](N)Cc4ccc(F)cc4)CC3)c21 (stereo partly drawn) [Example 23, (2R)-2-amino-3-(4-fluorophenyl)-1-(4-(5-methyl-5,7-dihydrothieno[3,4-d]pyrimidin-4-yl)piperazin-1-yl)propan-1-one]
